In patent US20250059284A1 one finds binding data, which are given here for three molecules.

These are yes or no findings as the source states them, for the method shown. A result given as binding can be weak or reduced; the word gives no strength.

Experiment [1] concerns the target cynomolgus Gal10-His (WGS isoform) (cynomolgus). The experiment can be described thus: summary table, row Cyno cross-reactivity.
For experiment [2] the target is unchanged. The experiment can be described thus: SPR Biacore 3000; two concentrations on captured cynomolgus Gal10-His. On the technique in general: In SPR one partner is held on a chip, and binding of the other changes the refractive index at the surface.

B1: g23H09 human Fab (Fab, V domains shown)
VH: EVQLLESGGGLVQPGGSLRLSCAASGFTFRSYDMSWVRQAPGKGLEWVSAIAQFQHWTYYADSVKGRFTISRDNSKNTLYLQMNSLRAEDTAVYYCATTHGIGTLGFGSWGQGTLVTVSS
VL: SYELTQPLSVSVALGQTARITCDGNNIGSKSAQWYQQKPGQAPVLVIYADEYRPEGIPERFSGSNSGNTATLTISRAQAGDEADYYCQVWDGSAAVFGGGTQLTVL
Regarding B1, the binding entry in experiment [1] and in experiment [2] was “binds” throughout.

B2: g24F02 human Fab (Fab, V domains shown)
VH: EVQLLESGGGLVQPGGSLRLSCAASGFTFSSYAMSWVRQAPGKGLEWVSAINNGGGSTSYADSVKGRFTISRDNSKNTLYLQMNSLRAEDTAVYYCAKGLRVGVLGFDYWGQGTLVTVSS
VL: SYELTQPLSVSVALGQTARITCDGNNIGSKSAQWYQQKPGQAPVLVIYADEYRPEGIPERFSGSNSGNTATLTISRAQAGDEADYYCQVWDGSAAVFGGGTQLTVL
B2: the binding result in experiment [2] is on record as “binds”.

B3: g24F02_N53A human Fab (Fab, V domains shown)
VH: EVQLLESGGGLVQPGGSLRLSCAASGFTFSSYAMSWVRQAPGKGLEWVSAINAGGGSTSYADSVKGRFTISRDNSKNTLYLQMNSLRAEDTAVYYCAKGLRVGVLGFDYWGQGTLVTVSS
VL: SYELTQPLSVSVALGQTARITCDGNNIGSKSAQWYQQKPGQAPVLVIYADEYRPEGIPERFSGSNSGNTATLTISRAQAGDEADYYCQVWDGSAAVFGGGTQLTVL
Consider B3, for which the binding entry in experiment [1] and in experiment [2] was “binds” each time.
